We go through one substance from patent publication USRE30548E (The Salk Institute for Biological Studies, priority 1979, dated 1981).

The nature of the data set: general procedure: Boc solid-phase peptide synthesis; chloromethylated polystyrene resin (Bio Rad) or hydroxymethyl resin; N,N'-dicyclohexyl carbodiimide. The settings on record: whole synthesis, scale 5 grams resin.

“H-CFFWKTFC-OH (cysteine pairing not given here)” yielded a crude mass of 950 mg.
